{"source": "PubChem BioAssay AID1259308 (NCATS, 2017)", "screen": "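Genes whose loss raises luciferase production in HEK293 cells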 (primary screen)", "cells": "human HEK293 embryonic kidney cells stably expressing firefly luciferase (HEK-CMV-Luc2-Hygro)", "knock-down reagent": "single siRNA against human genes, 0.8 pmol siRNA per well", "time to read-out": "72 h", "measurement": "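Reporter luminescence and viable-cell signal on separate replicate plates, given as percent of non-targeting control and median/MAD z-scores, plus per-cell luciferase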", "scale": "total luciferase, z-score and total luciferase, % of control: higher = more reporter protein produced", "rule for the call": "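An siRNA counts as active if its total luciferase robust z-score exceeds 3; genes with two or more such siRNAs out of three were retested with fresh siRNAs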", "calls": "active = raised luciferase; inactive = no rise", "note": "This is one part, drawn at random, of about 59,000 reagents. About 1,510 of all reagents (2.6%) were called active. 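Calls use total luciferase alone and ignore viability, so some active siRNAs may act by altering cell number.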 Entries without a mark were called inactive. Reagents against one gene are numbered here. Not all columns of the deposit are shown. No sequences are given here."}
{"gene symbol":"RAB37 (RAB37, member RAS oncogene family)","siRNA no.":1,"total luciferase, z-score":0.285,"total luciferase, % of control":87.6}
{"gene symbol":"RAB37 (RAB37, member RAS oncogene family)","siRNA no.":2,"total luciferase, z-score":-1.17,"total luciferase, % of control":58.6}
{"gene symbol":"RAB37 (RAB37, member RAS oncogene family)","siRNA no.":3,"total luciferase, z-score":-0.639,"total luciferase, % of control":69.2}
{"gene symbol":"CORO7 (coronin 7)","siRNA no.":1,"total luciferase, z-score":-0.571,"total luciferase, % of control":70.5}
{"gene symbol":"CORO7 (coronin 7)","siRNA no.":2,"total luciferase, z-score":-0.564,"total luciferase, % of control":70.7}
{"gene symbol":"CORO7 (coronin 7)","siRNA no.":3,"total luciferase, z-score":-0.912,"total luciferase, % of control":63.8}
{"gene symbol":"CYP11B2 (cytochrome P450 family 11 subfamily B member 2)","siRNA no.":1,"total luciferase, z-score":-0.493,"total luciferase, % of control":72.1}
{"gene symbol":"CYP11B2 (cytochrome P450 family 11 subfamily B member 2)","siRNA no.":2,"total luciferase, z-score":1.63,"total luciferase, % of control":114}
{"gene symbol":"CYP11B2 (cytochrome P450 family 11 subfamily B member 2)","siRNA no.":3,"total luciferase, z-score":-1.32,"total luciferase, % of control":55.7}
{"gene symbol":"TPP1 (tripeptidyl peptidase 1)","siRNA no.":1,"total luciferase, z-score":0.795,"total luciferase, % of control":97.7}
{"gene symbol":"TPP1 (tripeptidyl peptidase 1)","siRNA no.":2,"total luciferase, z-score":0.543,"total luciferase, % of control":92.7}
{"gene symbol":"TPP1 (tripeptidyl peptidase 1)","siRNA no.":3,"total luciferase, z-score":-0.247,"total luciferase, % of control":77}
{"gene symbol":"ZNF536 (zinc finger protein 536)","siRNA no.":1,"total luciferase, z-score":0.1,"total luciferase, % of control":83.9}
{"gene symbol":"ZNF536 (zinc finger protein 536)","siRNA no.":2,"total luciferase, z-score":0.623,"total luciferase, % of control":94.3}
{"gene symbol":"ZNF536 (zinc finger protein 536)","siRNA no.":3,"total luciferase, z-score":0.404,"total luciferase, % of control":89.9}
{"gene symbol":"FASTKD2 (FASTK mitochondrial RNA regulator 2)","siRNA no.":1,"total luciferase, z-score":-0.589,"total luciferase, % of control":70.2}
{"gene symbol":"FASTKD2 (FASTK mitochondrial RNA regulator 2)","siRNA no.":2,"total luciferase, z-score":-1.41,"total luciferase, % of control":53.8}
{"gene symbol":"FASTKD2 (FASTK mitochondrial RNA regulator 2)","siRNA no.":3,"total luciferase, z-score":-0.443,"total luciferase, % of control":73.1}
{"gene symbol":"CASC3 (CASC3 exon junction complex subunit)","siRNA no.":1,"total luciferase, z-score":-1.11,"total luciferase, % of control":59.8}
{"gene symbol":"CASC3 (CASC3 exon junction complex subunit)","siRNA no.":2,"total luciferase, z-score":-2.88,"total luciferase, % of control":24.6}
{"gene symbol":"CASC3 (CASC3 exon junction complex subunit)","siRNA no.":3,"total luciferase, z-score":0.145,"total luciferase, % of control":84.8}
